This is an account of results in PMC5507668.

Protein sequences, listed by entry. Tags and fused reporters are not part of them.
UniProt P29341: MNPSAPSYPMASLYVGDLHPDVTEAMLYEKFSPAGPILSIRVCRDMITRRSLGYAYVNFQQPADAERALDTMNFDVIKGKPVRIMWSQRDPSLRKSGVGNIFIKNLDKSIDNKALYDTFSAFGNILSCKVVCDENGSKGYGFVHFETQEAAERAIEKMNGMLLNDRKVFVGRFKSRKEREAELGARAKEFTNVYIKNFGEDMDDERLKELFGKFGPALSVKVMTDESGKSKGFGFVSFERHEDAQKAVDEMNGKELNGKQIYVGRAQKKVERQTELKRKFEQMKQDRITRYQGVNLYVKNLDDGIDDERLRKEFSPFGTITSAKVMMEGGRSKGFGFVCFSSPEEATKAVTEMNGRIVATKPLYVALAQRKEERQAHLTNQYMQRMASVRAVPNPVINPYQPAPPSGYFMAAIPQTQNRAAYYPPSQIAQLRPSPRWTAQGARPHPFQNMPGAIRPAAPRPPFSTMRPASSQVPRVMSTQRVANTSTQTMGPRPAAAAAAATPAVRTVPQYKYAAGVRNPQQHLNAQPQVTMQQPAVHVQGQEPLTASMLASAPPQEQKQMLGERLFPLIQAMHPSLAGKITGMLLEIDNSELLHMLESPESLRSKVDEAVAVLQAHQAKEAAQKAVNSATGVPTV

For this assay, the target named is T1, endogenous Zfp36 with a knocked-in V5 epitope tag (Zfp36-V5) (mouse (endogenous in BMDMs of the knock-in mouse)) (UniProt P22893).
T1 sequence: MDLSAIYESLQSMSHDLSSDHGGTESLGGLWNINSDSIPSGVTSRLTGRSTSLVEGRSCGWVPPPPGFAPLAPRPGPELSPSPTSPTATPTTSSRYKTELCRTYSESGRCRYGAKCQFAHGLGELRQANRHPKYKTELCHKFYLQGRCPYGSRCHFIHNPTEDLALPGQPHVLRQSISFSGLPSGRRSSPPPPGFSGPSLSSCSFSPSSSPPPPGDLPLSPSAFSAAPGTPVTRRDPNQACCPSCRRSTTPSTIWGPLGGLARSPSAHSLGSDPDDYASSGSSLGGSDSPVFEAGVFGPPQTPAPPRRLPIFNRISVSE
The experiment in a line: affinity purification with mass spectrometry; IP of endogenous Zfp36-V5 with a V5 antibody (IgG as control) from BMDMs after 4 hr of LPS, with RNaseA; tandem mass-tag quantitative proteomics, three biological replicas.

Results are given in words; binding and its absence hold for the method and conditions named. In cells and extracts the contact can be indirect. A yes stands for co-enrichment or nearness to the bait. Other partners may have been found. Where a sequence is shown, tags or fusion partners need not be part of it.

Consider “cytoplasmic poly(A)-binding protein 1 (Pabpc1), endogenous (from UniProt P29341 1-636)”, for which the binding result is listed as “binds”.

B1: 14-3-3θ, endogenous (protein, UniProt P68254 1-245)
chain: MEKTELIQKAKLAEQAERYDDMATCMKAVTEQGAELSNEERNLLSVAYKNVVGGRRSAWRVISSIEQKTDTSDKKLQLIKDYREKVESELRSICTTVLELLDKYLIANATNPESKVFYLKMKGDYFRYLAEVACGDDRKQTIENSQGAYQEAFDISKKEMQPTHPIRLGLALNFSVFYYEILNNPELACTLAKTAFDEAIAELDTLNEDSYKDSTLIMQLLRDNLTLWTSDSAGEECDAAEGAEN
For B1, the binding result is given as “binds”.
